Legend:
Assay in all cases: doxorubicin cell viability, CTG assay
Type in all cases: cell-based
A549 = conditions: Homo sapiens, 96 h; A549, Lung; CTG 4 days after treatment
Experimental: (§1) A172 and HCC15 cells were plated at 1200 cells/well in a 96 well plate. The next day, cells were treated with doxorubicin at the indicated concentrations. Four days after the doxorubicin exposure was initiated, the cells were assayed for viability using the CTG assay. […] After incubating the cells with the CTG reagent, ATP levels can be indirectly measured as light production using the TECAN luminescence plate reader. As a first step, toxicity of a known chemotherapeutic drug, doxorubicin, was assayed on the cell lines of interest. Doxorubicin was used as a positive control for cell toxicity in our assay.
(§2) The cells lines were plated at 1,000 to 4,000 cells/well in a 96-well plate and treated with doxorubicin the following day. CTG activity was measured 4 days after treatment. IC50 values were calculated by GraphPad Prism Software.

MCF7 = conditions: Homo sapiens, 96 h; MCF7, Breast; CTG 4 days after treatment
Experimental: as §1, §2

MDA-MB-231 = conditions: Homo sapiens, 96 h; MDA-MB-231, Breast; CTG 4 days after treatment
Experimental: as §1, §2

In the case of `COc1cccc2c1C(=O)c1c(O)c3c(c(O)c1C2=O)C[C@@](O)(C(=O)CO)C[C@@H]3O[C@H]1C[C@H](N)[C@H](O)[C@H](C)O1` [doxorubicin], the IC50 (A549) is reported as 126 nM, the IC50 (MCF7) is reported as 121 nM and the IC50 (MDA-MB-231) is reported as 43 nM.

From US12305171B2, “Compositions and methods for treating cancer” (bioAffinity Technologies, Inc., priority 2018, dated 2025)
